# For at least one compound, name, drawing or mass did not settle the structure.
# System: NF1-depleted TF-1 cell line
# Experiment: Cell line derived xenograft (CLDX) survival
# Format: in vivo, NSG mice
# Details: 0.5 mg/kg/d oral gavage starting day 8 after transplant
structure (smiles),measurement,value
CC(=O)Nc1cccc(-n2c(=O)n(C3CC3)c(=O)c3c(Nc4ccc(I)cc4F)n(C)c(=O)c(C)c32)c1 [trametinib],mice survival,significantly prolonged mice survival

# From patent US20220288040A1, “USE OF PYRVINIUM FOR THE TREATMENT OF A RAS PATHWAY MUTATED ACUTE MYELOID LEUKEMIA” (INSERM (INSTITUT NATIONAL DE LA SANTÉ ET DE LA RECHERCHE …, priority 2019, published 2022)
